{"source": "PubChem BioAssay AID720505 (Drosophila RNAi Screening Center, 2013)", "purpose": "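Genes needed for store-operated calcium entry in fly cells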 (primary screen)", "system": "Drosophila S2R+ cells", "reagents": "long dsRNA against Drosophila genes", "challenge": "thapsigargin (2 µM) in calcium-free buffer to empty internal stores, then 2 mM calcium added back", "measurement": "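Stores emptied by 2 µM thapsigargin without calcium, then 2 mM calcium re-added; fluo-4 fluorescence followed by FLIPR in 384-well plates, per-well averaged endpoint, raw; two screen passes, some wells retested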", "scale": "calcium signal and retest calcium signal: higher = more calcium entry after store depletion", "rule for the call": "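About 1500 genes called as lowering calcium entry, by varying amounts, judged against per-plate control wells with STIM1 as positive and Rho1 as negative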", "calls": "active = called as lowering calcium entry; inactive = not called", "note": "The screen tested about 20,000 reagents; below is an unselected part of those with a known target gene and a result. In the full data, about 2,100 (10%) were called active. 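Raw plate signals without normalisation; calls rest on control-based scores that were not deposited; replicate 2 separates called from uncalled poorly.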 Reagents against one gene are numbered here. The record does not give: the amount of reagent, the time to read-out."}
{"Gene": "CG7691", "dsRNA no.": 1, "calcium signal, replicate 1": 186, "calcium signal, replicate 2": 122, "Outcome": "inactive"}
{"Gene": "EndoG", "dsRNA no.": 1, "calcium signal, replicate 1": 137, "calcium signal, replicate 2": 200, "retest calcium signal, replicate 1": 104, "retest calcium signal, replicate 2": 120, "Outcome": "inactive"}
{"Gene": "EndoG", "dsRNA no.": 2, "calcium signal, replicate 1": 164, "calcium signal, replicate 2": 215, "Outcome": "inactive"}
{"Gene": "arx", "dsRNA no.": 1, "calcium signal, replicate 1": 134, "calcium signal, replicate 2": 83.9, "Outcome": "inactive"}
{"Gene": "px", "dsRNA no.": 1, "calcium signal, replicate 1": 172, "calcium signal, replicate 2": 98.3, "Outcome": "inactive"}
{"Gene": "px", "dsRNA no.": 2, "calcium signal, replicate 1": 92.9, "calcium signal, replicate 2": 125, "Outcome": "inactive"}
{"Gene": "CG30373", "dsRNA no.": 1, "calcium signal, replicate 1": 114, "calcium signal, replicate 2": 138, "Outcome": "inactive"}
{"Gene": "ath", "dsRNA no.": 1, "calcium signal, replicate 1": 148, "calcium signal, replicate 2": 174, "Outcome": "inactive"}
{"Gene": "PAN3", "dsRNA no.": 1, "calcium signal, replicate 1": 66, "calcium signal, replicate 2": 89.5, "Outcome": "active"}
{"Gene": "gus", "dsRNA no.": 1, "calcium signal, replicate 1": 172, "calcium signal, replicate 2": 120, "Outcome": "inactive"}
{"Gene": "gus", "dsRNA no.": 2, "calcium signal, replicate 1": 83, "calcium signal, replicate 2": 121, "retest calcium signal, replicate 1": 151, "retest calcium signal, replicate 2": 101, "Outcome": "active"}
{"Gene": "CG10550", "dsRNA no.": 1, "calcium signal, replicate 1": 84.2, "calcium signal, replicate 2": 94.5, "Outcome": "inactive"}
{"Gene": "CG15731", "dsRNA no.": 1, "calcium signal, replicate 1": 46.8, "calcium signal, replicate 2": 104, "Outcome": "active"}
{"Gene": "CG15731", "dsRNA no.": 2, "calcium signal, replicate 1": 179, "calcium signal, replicate 2": 67.1, "Outcome": "inactive"}
{"Gene": "Tsp42Ej", "dsRNA no.": 1, "calcium signal, replicate 1": 157, "calcium signal, replicate 2": 105, "Outcome": "inactive"}
{"Gene": "CG42262 (retired record)", "dsRNA no.": 1, "calcium signal, replicate 1": 95.7, "calcium signal, replicate 2": 94.4, "Outcome": "inactive"}
{"Gene": "CG7991", "dsRNA no.": 1, "calcium signal, replicate 1": 64.1, "calcium signal, replicate 2": 93.4, "Outcome": "inactive"}
{"Gene": "CG17195", "dsRNA no.": 1, "calcium signal, replicate 1": 227, "calcium signal, replicate 2": 170, "Outcome": "inactive"}

5 entries from above, reformatted.
Gene	dsRNA no.	calcium signal, replicate 1	calcium signal, replicate 2	retest calcium signal, replicate 1	retest calcium signal, replicate 2	Outcome
EndoG	2	164	215			inactive
arx	1	134	83.9			inactive
px	1	172	98.3			inactive
px	2	92.9	125			inactive
CG30373	1	114	138			inactive

The list goes on.
{"Gene": "CG32249", "dsRNA no.": 1, "calcium signal, replicate 1": 7432, "calcium signal, replicate 2": 127, "Outcome": "inactive"}
{"Gene": "CG32249", "dsRNA no.": 2, "calcium signal, replicate 1": 87.8, "calcium signal, replicate 2": 68.5, "Outcome": "inactive"}
{"Gene": "CG32249", "dsRNA no.": 3, "calcium signal, replicate 1": 138, "calcium signal, replicate 2": 198, "Outcome": "inactive"}
{"Gene": "twi", "dsRNA no.": 1, "calcium signal, replicate 1": 116, "calcium signal, replicate 2": 172, "Outcome": "inactive"}
{"Gene": "twi", "dsRNA no.": 2, "calcium signal, replicate 1": 107, "calcium signal, replicate 2": 138, "Outcome": "inactive"}
{"Gene": "obst-J", "dsRNA no.": 1, "calcium signal, replicate 1": 99.2, "calcium signal, replicate 2": 95.2, "Outcome": "inactive"}
{"Gene": "Dip-B", "dsRNA no.": 1, "calcium signal, replicate 1": 113, "calcium signal, replicate 2": 123, "Outcome": "inactive"}
{"Gene": "CG32834", "dsRNA no.": 1, "calcium signal, replicate 1": 63.4, "calcium signal, replicate 2": 217, "Outcome": "inactive"}
{"Gene": "CG7110", "dsRNA no.": 1, "calcium signal, replicate 1": 79.4, "calcium signal, replicate 2": 121, "Outcome": "inactive"}
{"Gene": "CG7110", "dsRNA no.": 2, "calcium signal, replicate 1": 125, "calcium signal, replicate 2": 87.2, "Outcome": "inactive"}
